Experimental findings from patent US20210214454A1 are described below.

This assay has as its target cynomolgus CD40 extracellular domain (ECD) (cynomolgus). Nature of the assay: SPR (IBIS MX96).

These are yes or no findings as the source states them, for the method shown. Binding can be weak; no strength is given.

B1: antibody 16154 (antibody, human IgG1, kappa, L234A L235A, V domains shown)
VH: EVQLVESGGGLVQPGGSLRLSCAASGFTFTSYWMSWVRQAPGKGLEWVANIKQDGSEKYYVDSVKGRFTISRDNAKNSLYLQMNSLRAEDTAVYYCARGPVAGPYWYFDLWGRGTLVTVSS
VL: AIQMTQSPSSLSASVGDRVTITCRASQGIRNDLGWYQQKPGKAPKLLIYAASSLQSGVPSRFSGSGSGTDFTLTISSLQPEDFATYYCLQDYHYPLTFGGGTKVEIKR
For the molecule B1, the binding entry is recorded as “binds”.

B2: antibody 15833 (antibody, human IgG1, kappa, L234A L235A, V domains shown)
VH: QVQLVESGGGVVQPGRSLRLSCAASGFTFSNYAMHWVRQAPGKGLEWVALISFDGSYKYYADSVKGRFTISRDNSKNTLYLQMNSLRAEDTAVYYCVKDAGYSSSWFFDYWGQGTLVTVSS
VL: DIQMTQSPSSVSASVGDRVTITCRASQDISSWLAWYQQKPGKAPKLLIYAASSLQSGVPSRFSGSGSGTDFTLTISSLQPEDFGNYYCQQANSFPWTFGQGTKVEIKR
Consider B2, for which the binding result is listed as “binds”.
